PubChem BioAssay AID1259254, NCATS – 2017

Aim: 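Genome-wide screen for genes that prevent DNA re-replication in cancer cells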 (primary screen)
Cell system: human HCT116 colorectal cancer cells
Knock-down reagent: single siRNA against human genes
Duration: 3 days
Measurement: 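Nuclei stained with Hoechst and imaged; cell-cycle phase assigned by DNA content; G2 share scaled per plate, non-targeting siRNA 0%, GMNN siRNA 100%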
Scale: G2 robust z-score and G2 cells, % of GMNN control: higher = more G2 cells, more excess DNA replication; raw share of cells in G2: higher = larger share of cells with G2 DNA content
Hit rule: 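Active siRNAs have a G2 robust z of 5 or more median absolute deviations over the median, which in these data means about 38% or higher of GMNN control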
In all, the deposit lists about 59,000 reagents; below is an unselected part. About 1,550 of all reagents (2.6%) were called active. 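G2 share is only a proxy for re-replication; each gene was hit by three separate siRNAs, and active genes were retested.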 The raw values are shown without normalisation. Reagents against one gene are numbered here. Not given: the amount of reagent.

Gene | siRNA no. | G2 robust z-score | G2 cells, % of GMNN control | raw share of cells in G2 (%) | call
PCLAF | 1 | -1.31 | -6.28 | 2.49 | inactive
PCLAF | 2 | -0.5 | -0.549 | 3.71 | inactive
PCLAF | 3 | 7.18 | 53.5 | 22.9 | active
A4GALT | 1 | -0.709 | -2.02 | 3.02 | inactive
A4GALT | 2 | 1.2 | 11.4 | 11.1 | inactive
A4GALT | 3 | 0.416 | 5.89 | 6.42 | inactive
VEGFA | 1 | -0.681 | -1.82 | 3.58 | inactive
VEGFA | 2 | -0.778 | -2.51 | 4.54 | inactive
VEGFA | 3 | -0.0194 | 2.83 | 5.41 | inactive
USP45 | 1 | 0.705 | 7.93 | 8.95 | inactive
USP45 | 2 | 1.34 | 12.4 | 8.57 | inactive
USP45 | 3 | -1.01 | -4.14 | 2.72 | inactive
MS4A4A | 1 | 2.78 | 22.6 | 16.2 | inactive
MS4A4A | 2 | -0.0931 | 2.31 | 4.69 | inactive
MS4A4A | 3 | -0.832 | -2.89 | 3.18 | inactive
TSFM | 1 | 0.871 | 9.1 | 9.44 | inactive
TSFM | 2 | 0.766 | 8.36 | 7.43 | inactive
TSFM | 3 | 1.32 | 12.2 | 7.85 | inactive
ISCU | 1 | -0.219 | 1.43 | 4.95 | inactive
ISCU | 2 | 1.41 | 12.9 | 9.52 | inactive
ISCU | 3 | 0.533 | 6.72 | 5.65 | inactive
RRAS2 | 1 | 3.62 | 28.5 | 17.8 | inactive
RRAS2 | 2 | -0.286 | 0.954 | 4.47 | inactive
RRAS2 | 3 | 3.74 | 29.3 | 13.9 | inactive
CBLL2 | 1 | -1.54 | -7.84 | 1.4 | inactive
CBLL2 | 2 | 3.63 | 28.5 | 15.1 | inactive
CBLL2 | 3 | 0.69 | 7.82 | 9.69 | inactive
DNAI4 | 1 | -0.416 | 0.0376 | 4.46 | inactive
DNAI4 | 2 | 5.18 | 39.4 | 21.5 | active
DNAI4 | 3 | 5.67 | 42.9 | 14.1 | active
